## Percent effect of library compounds

The filed quantity is “Percent Effect” (%).
The record does not define 0% and 100%; most values in the screen are far below 50% and negative numbers occur (in some assays of this library far below -100).
The compounds are a random part of those screened.

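Assay of Toxoplasma gondii numbers, read through their beta-galactosidase reporter with a colour substrate. Compounds at 10 µM. The record gives no direction; the compounds picked for IC50 retests had high values, so higher reads as fewer parasites. Size under these conditions: about 67,000 compounds, about 260 of them at 50% or above in at least one test.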

Cc1cc(CCC2CN(CC3(O)CCCCC3)CCO2)ncn1 (configuration not stated) gave 10.72%. c1cnn(CCNCc2csc(-c3ccc4c(c3)OCO4)n2)c1 gave 6.435%. CN1CCCC(c2cccc(CCC(=O)NCC3(C)COC3)n2)C1 (configuration not stated) gave 1.477%. With CN(CCc1nc2cc(Cl)ccc2[nH]1)C(=O)c1ncn[nH]1 the screen gave -3.232%. Result for Cn1ccnc1CNC(=O)N1CCCC(Cc2nccn2C)C1 (configuration not stated) was -27.97%.

With Cc1ccc(NC(=O)C(C)N2CCCN(c3nccs3)CC2)c(C)c1 (configuration not stated) the screen gave -28.2%. Result for Fc1cccc2[nH]c(CN3CCn4c(nnc4C4CC4)C3)nc12 was 1.206%. For CCn1cc(CN2CCCN(C(=O)c3cccc(C#N)c3)CC2)cn1 the result was 13.9%. O=C(c1cccnc1-n1cncn1)N1CCN(CC2CC2)CC1 read -1.5%. For O=C(c1ccccc1C(F)(F)F)N1CC[C@@H](N2CCC(O)CC2)[C@H](O)C1 the result was 0.8751%.

Result for O=C(O)C(F)(F)F.[H][C@@]12CN(C(=O)C3CCOC3)C[C@]1([H])C(=O)N(Cc1cccnc1)C2 (some centres not stated) was 16.42%. Result for CCc1nc(C2CCCN(C(=O)c3ccc4[nH]cnc4c3)C2)no1 (configuration not stated) was -0.958%. With [H][C@]12CCN(C(=O)Cc3cccc(OC)c3)CC[C@@]1([H])S(=O)(=O)N(CC)C2 the screen gave -6.61%. For CCn1c(CN2CCCC2)nnc1C1CCN(Cc2ccncc2)CC1 the result was 5.967%. For Cc1nccn1CCCC(=O)N1CCN(c2cccnc2)CC1 the result was -3.236%.

Result for O=C(CN1CCOCC1)N1CCN(C2CCc3ccc(F)cc32)CC1 (configuration not stated) was -2.655%. Result for CC(NC(=O)CCC1CCCCC1)c1nnc2n1CCC2 (configuration not stated) was -20.63%. Result for CC(=O)c1cccc(-c2c[nH]c(C)n2)c1 was -5.331%. Result for O=C(c1cccc(-n2cccn2)c1)N1CCOC(CCO)C1 (configuration not stated) was -4.533%. COc1cc(CNCC(O)c2ccc(F)cc2F)cc2c1OCO2 (configuration not stated) read -3.606%.

Result for COCCc1nnc(NC(=O)Cc2ccccc2Cl)o1 was -19.92%. Result for COc1cc(Cl)c(NC(=O)NCCn2cccc2)cc1OC was -0.3541%. With CCCN1CCC(c2nc3ccc(-c4ccccc4)cn3n2)CC1.O=C(O)C(F)(F)F the screen gave -12.36%. With Cc1nc(C)n(CC2CCCN(CC(=O)Nc3nnc(C)s3)C2)n1 (configuration not stated) the screen gave -6.794%. For Cc1nccnc1C1CCN(C2CCCC2O)CC1 (configuration not stated) the result was -0.493%.

For O=C1COC2(CCN(Cc3ccco3)CC2)CN1Cc1cccnc1 the result was -10.93%. For Cc1ncc(CN2CCCC(c3cc(C(N)=O)[nH]n3)C2)s1 (configuration not stated) the result was -34.07%. For CN(C)C(=O)CC1CC2(CCN(Cc3ccoc3)CC2)c2ccccc21.O=C(O)C(F)(F)F (configuration not stated) the result was -5.944%. With Fc1ccc(CN2CCCC2Cn2cncn2)c2ncccc12 (configuration not stated) the screen gave -4.806%. For COCCN1CCC(c2nc3ccccc3[nH]2)CC1 the result was -3.022%.

Result for [H][C@]12CC[C@]([H])(CN(Cc3ccccc3)C1)N(C(=O)C1CCS(=O)(=O)CC1)C2 was 3.516%. Result for COCc1c(C(=O)O)nnn1Cc1cccc(C(F)(F)F)c1 was -4.782%. Cc1cc(NC(=O)Cn2ccc(=O)c3ccccc32)[nH]n1 gave -16.88%. Result for COc1ccc2c(c1)NC(=O)C2OC(=O)CC(C)(C)C (configuration not stated) was 5.682%. O=C1NCC2(CCCN(Cc3ccc(F)cc3)C2)Oc2ccccc21 (configuration not stated) gave 3.94%.

With CCC(CC)C(=O)N1CCOC2(COCCN(CC(=O)NC)C2)C1.O=C(O)C(F)(F)F (configuration not stated) the screen gave -10.64%. For CCOCC1CN(Cc2ccc(F)cc2)Cc2nn(C)cc21.O=C(O)C(F)(F)F (configuration not stated) the result was 3.864%. COC(=O)c1ccc(C(=O)NCc2nn(C)c3c2COCC3)cc1 read -4.258%. With CC(NC(=O)Nc1nccs1)c1cccnc1 (configuration not stated) the screen gave 18.61%. With CC(C)N1CC(C(=O)N2CCc3c(nc(CC4CC4)[nH]c3=O)C2)CC1=O (configuration not stated) the screen gave 4.06%.

Result for Cc1noc(-c2ccnc(N3CCCN(C4CCOCC4)CC3)c2)n1 was -19.58%. For CC(=O)NCCCSC1CCN(c2ccccc2Cl)C1=O (configuration not stated) the result was -1.805%. N#Cc1cccc(N2CCCC(CO)(Cc3ccccc3F)C2)n1 (configuration not stated) gave -2.013%. Result for O=C(NCC1COC2(CCOCC2)O1)c1csc(-c2cccc(Cl)c2)n1 (configuration not stated) was -14.66%. CCC(C)(COc1ncccc1Cl)NCC(=O)NCC(C)C (configuration not stated) gave -1.901%.

With O=C(O)C(F)(F)F.O=C(O)C(F)(F)F.O=C(O)C(F)(F)F.[H][C@@]12C[C@@H](OCc3cccc(C)n3)CN1CCN(c1ncc(C)cn1)C2 the screen gave 3.182%. For O=C(O)C(F)(F)F.O=C(O)C(F)(F)F.O=C(O)C(F)(F)F.[H][C@@]12CCCO[C@]1([H])[C@H](N1CCN(C)CC1)CN2Cc1cc(C)c(C)o1 the result was 8.896%. Cc1cc(C)nc(C2CCN(C(=O)c3cncnc3C)C2)n1 (configuration not stated) read -50.31%. With CC(C)c1nnc2n1CCN(Cc1csc(-c3cnn(C)c3)n1)C2 the screen gave 9.777%. With COCc1cccc(NC(C(N)=O)c2ccc(Br)cc2)c1 (configuration not stated) the screen gave 8.239%.

Once more, the final 4:

With O=C(O)C(F)(F)F.O=C(O)C(F)(F)F.O=C(O)C(F)(F)F.[H][C@@]12CCCO[C@]1([H])[C@H](N1CCN(C)CC1)CN2Cc1cc(C)c(C)o1 the screen gave 8.896%.
With Cc1cc(C)nc(C2CCN(C(=O)c3cncnc3C)C2)n1 (configuration not stated) the screen gave -50.31%.
With CC(C)c1nnc2n1CCN(Cc1csc(-c3cnn(C)c3)n1)C2 the screen gave 9.777%.
With COCc1cccc(NC(C(N)=O)c2ccc(Br)cc2)c1 (configuration not stated) the screen gave 8.239%.

The values are deposited in ChEMBL (CHEMBL3988442, “University of Dundee, Small-Polar-MMV Screening Library” (2021)).